Laboratory results from the supplement of paper PMC6690932.
Where a name gives a salt, the structure may show the parent alone. ± gives the standard deviation of the averaged measurements. The list shows a part of the results. Most values come without repeats; read them as rough.

Test system: HeLa
Assay: lysosomal-METRIQ red/green fluorescence ratio relative to DMSO (ratio to DMSO); higher = higher lysosomal activity / lysosomal biogenesis
Settings: 10 µM; 12 h

SMILES | lysosomal-METRIQ red/green fluorescence ratio
O=C1NC(=O)c2c1c1c3ccccc3[nH]c1n1cncc21 [isogranulatimide] | 0.864
CNC(=N)NCCC[C@H](N)C(=O)O | 1.07
C=CCc1cccc(/C=N/NC(=O)CN2CCN(Cc3ccccc3)CC2)c1O | 0.864
C#Cc1cccc(Nc2ncnc3cc(OCCOC)c(OCCOC)cc23)c1 [erlotinib] | 0.818
COc1cc2ncnc(Nc3ccc(F)c(Cl)c3)c2cc1OCCCN1CCOCC1 [gefitinib] | 0.682
CC#C[C@]1(O)CC[C@H]2[C@@H]3CCC4=CC(=O)CCC4=C3[C@@H](c3ccc(N(C)C)cc3)C[C@@]21C [Mifepristone] | 0.96
CO[C@@]12[C@H](COC(N)=O)C3=C(C(=O)C(C)=C(N)C3=O)N1C[C@@H]1N[C@@H]12 [Mitomycin C] | 1.03
CN(C)CCCN1c2ccccc2Sc2ccc(Cl)cc21 [chlorpromazine hydrochloride] | 0.727
Cn1cnc2c(NCc3ccccc3)nc(NCCO)nc21 [Olomoucine] | 0.973 ± 0.1
COc1cc2ncnc(Nc3ccc(NC(=O)c4ccccc4)cc3)c2cc1OC [Aurora kinase inhibitor II] | 1.05
C[S+]([O-])c1ccc(-c2nc(-c3ccc(F)cc3)c(-c3ccncc3)[nH]2)cc1 (centres undefined) | 1.2
OCCn1cc(-c2cnc3nnn(Cc4ccc5ncccc5c4)c3n2)cn1 | 0.955
CC(C)n1nc(-c2cc3cc(O)ccc3[nH]2)c2c(N)ncnc21 [Torkinib] | 0.864
C[C@H](NC(=O)/C(C#N)=C/c1cccc(Br)n1)c1ccccc1 | 0.955

A different layout for part of the listing above:
CC#C[C@]1(O)CC[C@H]2[C@@H]3CCC4=CC(=O)CCC4=C3[C@@H](c3ccc(N(C)C)cc3)C[C@@]21C [Mifepristone]
  lysosomal-METRIQ red/green fluorescence ratio: 0.96
C[S+]([O-])c1ccc(-c2nc(-c3ccc(F)cc3)c(-c3ccncc3)[nH]2)cc1 (centres undefined)
  lysosomal-METRIQ red/green fluorescence ratio: 1.2
